Test results from patent US5422126A, “Halogen compositions for water treatment and method of preparation thereof” (priority 1993, dated 1995).
At least one compound was matched to its structure with a doubt left.

Assay: Oxidant level and BrO3- ion determination by ion-chromatography after activation of HBr or NaBr with bleach, with or without DMH
Type: physicochemical

## CC1(C)NC(=O)NC1=O [DMH, Dimethylhydantoin]
  BrO3- ion formation / suppression (in words): effective in suppressing BrO3^- ion formation
